In the supplement of paper PMC12819154, “High-throughput peptide-centric local stability assay extends protein–ligand identification to membrane proteins, tissues and bacteria” (Nature Structural & Molecular Biology, 2025):
The other results are listed elsewhere or left out. Most entries show no effect beyond the scatter of the controls.

The chains behind the UniProt entries cited, without tags or fusion partners. Where a name states a change or a piece, a line headed by the entry shows the natural chain unless it says otherwise.
UniProt Q15742: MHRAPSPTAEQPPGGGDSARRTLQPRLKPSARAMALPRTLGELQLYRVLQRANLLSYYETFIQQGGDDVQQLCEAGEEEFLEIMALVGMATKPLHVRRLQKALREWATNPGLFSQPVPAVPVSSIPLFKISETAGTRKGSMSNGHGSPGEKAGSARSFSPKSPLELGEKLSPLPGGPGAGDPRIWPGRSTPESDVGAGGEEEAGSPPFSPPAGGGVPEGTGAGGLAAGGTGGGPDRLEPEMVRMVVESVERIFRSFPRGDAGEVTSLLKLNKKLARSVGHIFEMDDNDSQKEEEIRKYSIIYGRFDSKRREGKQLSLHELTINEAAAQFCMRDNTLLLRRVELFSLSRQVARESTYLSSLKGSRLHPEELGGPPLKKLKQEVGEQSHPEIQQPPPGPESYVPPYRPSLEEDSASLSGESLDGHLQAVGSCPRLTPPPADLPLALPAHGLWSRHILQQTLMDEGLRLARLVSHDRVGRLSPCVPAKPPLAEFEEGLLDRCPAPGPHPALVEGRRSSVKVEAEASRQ
UniProt Q15390: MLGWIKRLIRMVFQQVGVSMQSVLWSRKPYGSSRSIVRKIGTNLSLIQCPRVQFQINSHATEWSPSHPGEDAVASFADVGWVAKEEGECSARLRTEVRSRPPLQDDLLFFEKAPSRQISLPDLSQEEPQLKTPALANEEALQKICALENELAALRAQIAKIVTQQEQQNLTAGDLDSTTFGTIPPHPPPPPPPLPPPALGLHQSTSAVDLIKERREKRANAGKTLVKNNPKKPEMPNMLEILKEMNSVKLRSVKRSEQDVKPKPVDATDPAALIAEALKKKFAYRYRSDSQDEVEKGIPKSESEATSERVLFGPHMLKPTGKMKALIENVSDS
UniProt Q15334: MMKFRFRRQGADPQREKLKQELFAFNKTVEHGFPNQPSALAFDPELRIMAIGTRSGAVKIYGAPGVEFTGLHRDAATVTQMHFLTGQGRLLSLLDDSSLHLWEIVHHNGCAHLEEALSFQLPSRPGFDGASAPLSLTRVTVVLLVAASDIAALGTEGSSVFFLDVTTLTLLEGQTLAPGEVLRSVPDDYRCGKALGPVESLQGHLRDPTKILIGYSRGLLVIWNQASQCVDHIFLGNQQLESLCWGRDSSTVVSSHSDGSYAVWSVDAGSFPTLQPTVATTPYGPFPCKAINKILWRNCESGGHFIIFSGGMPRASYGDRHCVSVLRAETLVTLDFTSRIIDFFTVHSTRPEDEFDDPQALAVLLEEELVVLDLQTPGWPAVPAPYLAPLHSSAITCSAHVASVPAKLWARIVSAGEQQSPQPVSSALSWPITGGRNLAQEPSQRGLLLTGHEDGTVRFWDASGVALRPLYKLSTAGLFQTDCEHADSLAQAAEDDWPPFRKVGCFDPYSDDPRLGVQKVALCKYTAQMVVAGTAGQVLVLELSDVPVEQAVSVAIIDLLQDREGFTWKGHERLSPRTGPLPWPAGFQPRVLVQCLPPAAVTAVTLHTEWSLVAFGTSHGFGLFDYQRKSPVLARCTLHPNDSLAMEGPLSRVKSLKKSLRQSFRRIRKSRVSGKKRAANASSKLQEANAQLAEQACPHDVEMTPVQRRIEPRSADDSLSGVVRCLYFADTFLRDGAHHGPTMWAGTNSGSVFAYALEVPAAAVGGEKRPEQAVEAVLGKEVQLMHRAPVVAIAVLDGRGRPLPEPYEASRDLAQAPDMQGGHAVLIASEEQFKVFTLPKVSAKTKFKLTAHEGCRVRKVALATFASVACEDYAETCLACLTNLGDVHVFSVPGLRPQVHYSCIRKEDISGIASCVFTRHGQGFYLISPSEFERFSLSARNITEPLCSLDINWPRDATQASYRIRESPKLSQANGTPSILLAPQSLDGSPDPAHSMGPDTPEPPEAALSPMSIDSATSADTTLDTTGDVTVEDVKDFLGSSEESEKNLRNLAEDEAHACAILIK
UniProt Q15061: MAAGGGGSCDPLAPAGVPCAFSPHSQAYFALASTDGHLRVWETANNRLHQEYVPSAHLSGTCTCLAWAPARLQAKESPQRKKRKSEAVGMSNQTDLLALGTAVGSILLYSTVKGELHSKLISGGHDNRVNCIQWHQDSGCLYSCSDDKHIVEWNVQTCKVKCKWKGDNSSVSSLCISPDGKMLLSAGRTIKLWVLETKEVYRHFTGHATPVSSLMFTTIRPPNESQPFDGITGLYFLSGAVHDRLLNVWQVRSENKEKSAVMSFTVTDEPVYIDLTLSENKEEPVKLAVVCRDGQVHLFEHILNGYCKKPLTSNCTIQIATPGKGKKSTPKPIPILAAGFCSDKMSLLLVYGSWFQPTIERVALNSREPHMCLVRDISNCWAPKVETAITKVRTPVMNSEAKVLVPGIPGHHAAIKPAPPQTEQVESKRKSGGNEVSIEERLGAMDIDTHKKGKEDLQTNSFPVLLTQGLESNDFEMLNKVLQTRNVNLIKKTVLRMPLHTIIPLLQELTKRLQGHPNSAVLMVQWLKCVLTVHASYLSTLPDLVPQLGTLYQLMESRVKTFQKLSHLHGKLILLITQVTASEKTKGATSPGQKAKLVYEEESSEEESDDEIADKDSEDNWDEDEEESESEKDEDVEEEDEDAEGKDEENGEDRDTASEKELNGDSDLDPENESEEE
UniProt Q15389: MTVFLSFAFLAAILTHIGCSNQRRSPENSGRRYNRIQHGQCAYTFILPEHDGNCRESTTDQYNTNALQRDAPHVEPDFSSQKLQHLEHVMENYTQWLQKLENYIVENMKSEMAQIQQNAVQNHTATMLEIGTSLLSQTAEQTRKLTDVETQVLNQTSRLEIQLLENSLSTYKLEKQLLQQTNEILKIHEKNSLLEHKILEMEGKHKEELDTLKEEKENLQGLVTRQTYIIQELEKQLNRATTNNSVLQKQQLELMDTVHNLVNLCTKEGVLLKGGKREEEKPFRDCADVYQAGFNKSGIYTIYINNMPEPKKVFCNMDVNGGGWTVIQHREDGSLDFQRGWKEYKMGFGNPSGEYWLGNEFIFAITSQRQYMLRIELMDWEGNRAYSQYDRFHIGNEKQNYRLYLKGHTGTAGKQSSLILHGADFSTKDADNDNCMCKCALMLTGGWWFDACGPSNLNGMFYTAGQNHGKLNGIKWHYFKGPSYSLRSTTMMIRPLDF
UniProt Q16342: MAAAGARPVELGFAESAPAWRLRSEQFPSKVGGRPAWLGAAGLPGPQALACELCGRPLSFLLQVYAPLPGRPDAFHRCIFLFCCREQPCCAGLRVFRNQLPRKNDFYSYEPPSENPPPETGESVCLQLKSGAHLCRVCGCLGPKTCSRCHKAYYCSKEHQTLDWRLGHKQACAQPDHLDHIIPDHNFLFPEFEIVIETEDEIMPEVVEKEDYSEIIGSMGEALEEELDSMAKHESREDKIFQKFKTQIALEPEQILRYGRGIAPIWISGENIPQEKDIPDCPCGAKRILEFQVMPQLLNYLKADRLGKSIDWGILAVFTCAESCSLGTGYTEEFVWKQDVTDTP
UniProt Q16181: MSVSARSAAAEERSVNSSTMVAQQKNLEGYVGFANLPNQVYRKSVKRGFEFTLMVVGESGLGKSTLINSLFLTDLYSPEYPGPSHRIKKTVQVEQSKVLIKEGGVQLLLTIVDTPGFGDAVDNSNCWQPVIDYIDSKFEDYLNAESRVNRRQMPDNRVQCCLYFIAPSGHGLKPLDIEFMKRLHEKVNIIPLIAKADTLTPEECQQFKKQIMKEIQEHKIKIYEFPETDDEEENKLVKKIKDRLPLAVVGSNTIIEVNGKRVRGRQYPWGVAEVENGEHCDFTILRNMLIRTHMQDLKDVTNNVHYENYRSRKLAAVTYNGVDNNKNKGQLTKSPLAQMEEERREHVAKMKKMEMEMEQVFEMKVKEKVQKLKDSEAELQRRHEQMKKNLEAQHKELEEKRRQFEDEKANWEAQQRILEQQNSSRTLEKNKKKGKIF
UniProt Q15785: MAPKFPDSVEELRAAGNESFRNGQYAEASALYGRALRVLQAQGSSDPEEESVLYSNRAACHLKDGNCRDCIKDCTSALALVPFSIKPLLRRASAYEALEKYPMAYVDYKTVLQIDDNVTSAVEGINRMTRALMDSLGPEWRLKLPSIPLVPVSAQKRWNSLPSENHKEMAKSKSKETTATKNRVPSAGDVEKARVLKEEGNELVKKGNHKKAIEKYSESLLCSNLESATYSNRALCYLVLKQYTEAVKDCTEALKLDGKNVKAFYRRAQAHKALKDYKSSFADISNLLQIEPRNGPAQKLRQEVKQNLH
UniProt Q15572: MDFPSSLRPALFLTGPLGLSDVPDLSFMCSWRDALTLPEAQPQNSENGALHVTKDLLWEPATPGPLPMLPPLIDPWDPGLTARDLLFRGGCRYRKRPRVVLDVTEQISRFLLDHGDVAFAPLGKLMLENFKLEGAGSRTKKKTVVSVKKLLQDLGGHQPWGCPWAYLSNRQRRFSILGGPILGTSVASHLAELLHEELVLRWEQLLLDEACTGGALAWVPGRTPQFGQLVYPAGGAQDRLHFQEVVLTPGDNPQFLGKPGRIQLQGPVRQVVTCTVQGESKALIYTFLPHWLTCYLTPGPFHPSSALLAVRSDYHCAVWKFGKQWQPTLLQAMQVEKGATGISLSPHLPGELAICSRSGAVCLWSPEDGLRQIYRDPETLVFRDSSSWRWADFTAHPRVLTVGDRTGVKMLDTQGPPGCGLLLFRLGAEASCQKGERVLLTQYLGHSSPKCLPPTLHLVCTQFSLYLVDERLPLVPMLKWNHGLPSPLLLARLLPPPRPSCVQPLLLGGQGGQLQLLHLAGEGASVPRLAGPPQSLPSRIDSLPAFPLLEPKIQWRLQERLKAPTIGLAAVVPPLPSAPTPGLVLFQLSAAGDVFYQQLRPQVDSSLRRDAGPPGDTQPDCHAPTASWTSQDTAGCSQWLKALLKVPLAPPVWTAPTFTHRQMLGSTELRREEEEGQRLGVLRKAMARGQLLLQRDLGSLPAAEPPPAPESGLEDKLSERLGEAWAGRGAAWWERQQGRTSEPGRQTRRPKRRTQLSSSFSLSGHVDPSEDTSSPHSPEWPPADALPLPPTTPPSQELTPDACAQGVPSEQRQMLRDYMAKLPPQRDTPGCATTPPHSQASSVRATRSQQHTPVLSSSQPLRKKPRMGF
UniProt Q15366, whole entry: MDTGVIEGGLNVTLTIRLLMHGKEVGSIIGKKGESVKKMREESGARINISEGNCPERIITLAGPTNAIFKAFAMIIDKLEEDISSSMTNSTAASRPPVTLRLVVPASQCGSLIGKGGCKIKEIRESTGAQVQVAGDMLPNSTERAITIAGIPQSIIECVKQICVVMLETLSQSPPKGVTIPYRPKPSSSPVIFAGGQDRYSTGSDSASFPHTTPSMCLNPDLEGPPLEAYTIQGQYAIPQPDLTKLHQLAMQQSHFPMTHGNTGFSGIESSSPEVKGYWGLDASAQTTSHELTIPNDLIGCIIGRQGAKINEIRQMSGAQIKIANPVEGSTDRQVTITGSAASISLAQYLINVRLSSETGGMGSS

Each target was assayed with Cc1nc(Nc2ncc(C(=O)Nc3c(C)cccc3Cl)s2)cc(N2CCN(CCO)CC2)n1 [dasatinib] (assay: log2 fold change of tryptic peptide abundance, ligand vs vehicle (limited proteolysis) (log2 ratio); higher = more trypsin-susceptible (destabilized)). Details: ligand concentration: 5 uM; sample: K562 cleared lysate.

Target | log2 fold change
NAB2 (peptide sequence: SSVKVEAEASRQ, peptide start residue: 514) (UniProt Q15742) | 0.248
MTFR1 (peptide sequence: VLFGPHMLKPTGK, peptide start residue: 310) (UniProt Q15390) | 0.189
LLGL1 (peptide sequence: LTAHEGCR, peptide start residue: 849) (UniProt Q15334) | -0.256
WDR43 (peptide sequence: LWVLETK, peptide start residue: 192) (UniProt Q15061) | -0.383
MAPRE2 (peptide sequence: SSPAAKPGSTPSRPSSAK, peptide start residue: 208) (UniProt Q15555) | -0.0933
UniProt Q15389 (peptide sequence: QSSLILHGADFSTK, peptide start residue: 415) | 0.371
PDCD2 (peptide sequence: VCGCLGPKTCSR, peptide start residue: 137) (UniProt Q16342) | -0.244
UniProt Q16181 (peptide sequence: KNLEAQHK, peptide start residue: 388) | -0.145
TOMM34 (peptide sequence: AACHLKDGNCR, peptide start residue: 58) (UniProt Q15785) | 0.278
TAF1C (peptide sequence: VLLTQYLGHSSPK, peptide start residue: 438) (UniProt Q15572) | 0.537
PCBP2 (peptide sequence: GVTIPYRPK, peptide start residue: 177) (UniProt Q15366) | 0.0864

As a working copy, part of the list above.
Target | log2 fold change
WDR43 (peptide sequence: LWVLETK, peptide start residue: 192) (UniProt Q15061) | -0.383
MAPRE2 (peptide sequence: SSPAAKPGSTPSRPSSAK, peptide start residue: 208) (UniProt Q15555) | -0.0933
